Structures are written as SMILES. The list shows a part of the results. Many values rest on one well or one pass, so single values are uncertain.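 Imaging used 1,536-well plates; nuclei positive for cleaved PARP by antibody were divided by total DNA-stained nuclei to yield the apoptosis fraction. Doses for screening kept most cells viable, and cell lines differ markedly in resting and induced cleaved-PARP levels.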

For the first assay, the system named is G361. Put plainly: cleaved PARP positive nuclei fraction relative to DMSO control; melanoma cells; higher = more apoptosis. The settings on record: library dose: low library concentration; 72 h.
Regarding `Cn1cnc2c(F)c(Nc3ccc(Br)cc3Cl)c(C(=O)NOCCO)cc21` [selumetinib] + OCCn1cc(-c2cnc3nnn(Cc4ccc5ncccc5c4)c3n2)cn1 [PF04217903] (first compound 0.015 µM, partner dose 1 µM), the “cleaved PARP positive nuclei fraction” value came to 96.5%.

For the compound `Cn1cnc2c(F)c(Nc3ccc(Br)cc3Cl)c(C(=O)NOCCO)cc21` [selumetinib] + Oc1cc(-c2nc(-c3ccccc3)[nH]c2-c2ccncc2)ccc1Cl [L779450] (first compound 0.015 µM, partner dose 0.2 µM), the “cleaved PARP positive nuclei fraction” value turned out to be 288%. `Cn1sc(=O)n(Cc2ccccc2)c1=O` + CCCCCCCCCCCC1=C(O)C(=O)C=C(O)C1=O [Embelin] (first compound 0.4 µM, partner dose 1.2 µM): the “cleaved PARP positive nuclei fraction” value turned out to be 67.8%. The same measure, in the same setting: for `CCN(CC)CCNC(=O)c1c(C)[nH]c(/C=C2\C(=O)Nc3ccc(F)cc32)c1C` [sunitinib] + CCc1ccc(CCOc2ccc(CC3SC(=O)NC3=O)cc2)nc1 [pioglitazone] (first compound 0.4 µM, partner dose 2 µM) the value was 172%.

In another assay the test system is IPC-298. Described as above. The settings on record: library dose: low library concentration; 72 h.
`C[C@]1(O)C[C@@H](c2nc(-c3ccc4ccc(-c5ccccc5)nc4c3)c3c(N)nccn32)C1` + C[C@@H]1CCN(C(=O)CC#N)C[C@@H]1N(C)c1ncnc2[nH]ccc12 [CP690550] (first compound 0.4 µM, partner dose 1 µM): the “cleaved PARP positive nuclei fraction” value came out at 139%. On the same count and under the same terms, with `Cn1sc(=O)n(Cc2ccccc2)c1=O` + NCC(=O)Nc1ccc(-n2nc(C(F)(F)F)cc2-c2ccc3c(ccc4ccccc43)c2)cc1 [OSU03012] (first compound 0.4 µM, partner dose 1 µM) the figure was 357%. Same read-out and setting: for `Cn1sc(=O)n(Cc2ccccc2)c1=O` + COc1cc2ncnc(Nc3ccc(Oc4ccccc4)cc3)c2cc1OC [SrcI1] (first compound 0.4 µM, partner dose 2 µM) the value was 104%; for `Cn1cnc2c(F)c(Nc3ccc(Br)cc3Cl)c(C(=O)NOCCO)cc21` [selumetinib] + Oc1nc(-c2ccc(C(F)(F)F)cc2)nc2c1CSCC2 [XAV939] (first compound 0.015 µM, partner dose 2 µM), 55.9%. Still for that read-out and setting: for `CCCCCCCCc1ccc(CCC(N)(CO)CO)cc1` [fingolimod] + O=C(CCCCCCC(=O)Nc1ccccc1)NO [vorinostat] (first compound 2 µM, partner dose 0.08 µM) the value was 86%. In the case of `NC1(c2ccc(-c3nc4ccn5c(=O)[nH]nc5c4cc3-c3ccccc3)cc2)CCC1` + COc1cc2ncnc(Nc3ccc(Oc4ccccc4)cc3)c2cc1OC [SrcI1] (first compound 0.4 µM, partner dose 2 µM), the “cleaved PARP positive nuclei fraction” value was found to be 95.1%. Still for that read-out and setting: with `CCCCCCCCc1ccc(CCC(N)(CO)CO)cc1` [fingolimod] + Cc1ccc(NC(=O)c2cccc(N(C)C)c2)cc1NC(=O)c1ccc(O)cc1 [ZM336372] (first compound 2 µM, partner dose 2 µM) the figure was 106%; with `Cn1sc(=O)n(Cc2ccccc2)c1=O` + Cn1cc(/C=C2\C(=O)Nc3cccnc32)c2ccccc21 [GW441756] (first compound 0.4 µM, partner dose 0.4 µM), 42.5%. On the same count and under the same terms, for `CCN(CC)CCNC(=O)c1c(C)[nH]c(/C=C2\C(=O)Nc3ccc(F)cc32)c1C` [sunitinib] + CC1(C)NC(=O)N(c2ccc([N+](=O)[O-])c(C(F)(F)F)c2)C1=O [nilutamide] (first compound 0.4 µM, partner dose 1 µM) the value was 44.9%. On the same count and under the same terms, with `CN(c1ncccc1CNc1nc(Nc2ccc3c(c2)CC(=O)N3)ncc1C(F)(F)F)S(C)(=O)=O` + COc1cc2c(Oc3ccc4[nH]c(C)cc4c3F)ncnc2cc1OCCCN1CCCC1 [cediranib] (first compound 0.08 µM, partner dose 0.4 µM) the figure was 46%. `C[C@@H](N)c1ccc(C(=O)Nc2ccnc3[nH]ccc23)cc1` + COc1cc2ncnc(Nc3ccc(Oc4ccccc4)cc3)c2cc1OC [SrcI1] (first compound 0.4 µM, partner dose 2 µM): the “cleaved PARP positive nuclei fraction” value was found to be 72.4%. Still for that read-out and setting: for `CCCCCCCCc1ccc(CCC(N)(CO)CO)cc1` [fingolimod] + Oc1cc(-c2nc(-c3ccccc3)[nH]c2-c2ccncc2)ccc1Cl [L779450] (first compound 2 µM, partner dose 0.2 µM) the value was 116%. In the case of `C[C@@H](N)c1ccc(C(=O)Nc2ccnc3[nH]ccc23)cc1` + O=S(=O)(c1ccccc1)N(CC(F)(F)F)c1ccc(C(O)(C(F)(F)F)C(F)(F)F)cc1 [T0901317] (first compound 0.4 µM, partner dose 1.4 µM), the “cleaved PARP positive nuclei fraction” value was 203%. Same read-out and setting: with `CN(c1ncccc1CNc1nc(Nc2ccc3c(c2)CC(=O)N3)ncc1C(F)(F)F)S(C)(=O)=O` + O=c1cc(-c2cccc3c2Sc2ccccc2S3)oc(N2CCOCC2)c1 [KU55933] (first compound 0.08 µM, partner dose 1 µM) the figure was 144%; with `C[C@]1(O)C[C@@H](c2nc(-c3ccc4ccc(-c5ccccc5)nc4c3)c3c(N)nccn32)C1` + CCc1ccc(CCOc2ccc(CC3SC(=O)NC3=O)cc2)nc1 [pioglitazone] (first compound 0.4 µM, partner dose 2 µM), 65.4%.

In the case of `C[C@]1(O)C[C@@H](c2nc(-c3ccc4ccc(-c5ccccc5)nc4c3)c3c(N)nccn32)C1` + COc1ccc2c(c1)CCC1C2CCC2(C)C(NCCCCCCN3C(=O)C=CC3=O)CCC12 [U73122] (first compound 0.4 µM, partner dose 0.4 µM), the “cleaved PARP positive nuclei fraction” value is 32.7%. On to `C[C@]1(O)C[C@@H](c2nc(-c3ccc4ccc(-c5ccccc5)nc4c3)c3c(N)nccn32)C1` + O=C1NC(=O)/C(=C/c2ccc(-c3ccc(F)cc3O)o2)S1 [AS252424] (first compound 0.4 µM, partner dose 1 µM), for which the “cleaved PARP positive nuclei fraction” value was 101%. The same measure, in the same setting: for `CC1(C)CCC(c2ccc(Cl)cc2)=C(CN2CCN(c3ccc(C(=O)NS(=O)(=O)c4ccc(N[C@H](CCN5CCOCC5)CSc5ccccc5)c(S(=O)(=O)C(F)(F)F)c4)cc3)CC2)C1` + O=C(Nc1cccc(Cl)c1)Nc1ncc(CCNc2ncnc3ccsc23)s1 [SNS314] (first compound 0.4 µM, partner dose 0.0008 µM) the value was 220%; for `C[C@]1(O)C[C@@H](c2nc(-c3ccc4ccc(-c5ccccc5)nc4c3)c3c(N)nccn32)C1` + O=C(Nc1ccccc1)c1cc([N+](=O)[O-])ccc1Cl [GW9662] (first compound 0.4 µM, partner dose 2 µM), 119%.

As to `NC1(c2ccc(-c3nc4ccn5c(=O)[nH]nc5c4cc3-c3ccccc3)cc2)CCC1` + Cc1cc(N2CCOCC2)cc2[nH]c(-c3c(NC[C@@H](O)c4cccc(Cl)c4)cc[nH]c3=O)nc12 [BMS536924] (first compound 0.4 µM, partner dose 0.2 µM), the “cleaved PARP positive nuclei fraction” value worked out at 93.5%.

Take `CCN(CC)CCNC(=O)c1c(C)[nH]c(/C=C2\C(=O)Nc3ccc(F)cc32)c1C` [sunitinib] + O=c1cc(-c2cccc3c2Sc2ccccc2S3)oc(N2CCOCC2)c1 [KU55933] (first compound 0.4 µM, partner dose 1 µM): the “cleaved PARP positive nuclei fraction” value was 146%. On the same count and under the same terms, with `CS(=O)(=O)c1ccc(C(=O)Nc2ccc(Cl)c(-c3ccccn3)c2)c(Cl)c1` [vismodegib] + CN(NC(=O)CC(=O)NN(C)C(=S)c1ccccc1)C(=S)c1ccccc1 [STA4783] (first compound 1 µM, partner dose 0.006 µM) the figure was 180%. `Cn1cnc2c(F)c(Nc3ccc(Br)cc3Cl)c(C(=O)NOCCO)cc21` [selumetinib] + C=CCNC1=C2C[C@@H](C)C[C@H](OC)[C@H](O)[C@@H](C)/C=C(\C)[C@H](OC(N)=O)[C@@H](OC)/C=C\C=C(/C)C(=O)NC(=CC1=O)C2=O [Tanespimycin] (first compound 0.015 µM, partner dose 0.002 µM): the “cleaved PARP positive nuclei fraction” value worked out at 241%.

On to `Cn1cnc2c(F)c(Nc3ccc(Br)cc3Cl)c(C(=O)NOCCO)cc21` [selumetinib] + O=S(=O)(c1ccccc1)N(CC(F)(F)F)c1ccc(C(O)(C(F)(F)F)C(F)(F)F)cc1 [T0901317] (first compound 0.015 µM, partner dose 1.4 µM), for which the “cleaved PARP positive nuclei fraction” value amounted to 71.8%. In the case of `NC1(c2ccc(-c3nc4ccn5c(=O)[nH]nc5c4cc3-c3ccccc3)cc2)CCC1` + O=C(O)C(=O)Nc1sc2c(c1C(=O)O)CCNC2 [TCS401] (first compound 0.4 µM, partner dose 1.66667 µM), the “cleaved PARP positive nuclei fraction” value came out at 33.4%. As for `CC1(C)CCC(c2ccc(Cl)cc2)=C(CN2CCN(c3ccc(C(=O)NS(=O)(=O)c4ccc(N[C@H](CCN5CCOCC5)CSc5ccccc5)c(S(=O)(=O)C(F)(F)F)c4)cc3)CC2)C1` + Nc1nc(F)nc2c1ncn2[C@@H]1O[C@H](CO)[C@@H](O)[C@@H]1O [fludarabine] (first compound 0.4 µM, partner dose 0.2 µM), the “cleaved PARP positive nuclei fraction” value came out at 179%. Still for that read-out and setting: with `Cn1sc(=O)n(Cc2ccccc2)c1=O` + C=CCNC1=C2C[C@@H](C)C[C@H](OC)[C@H](O)[C@@H](C)/C=C(\C)[C@H](OC(N)=O)[C@@H](OC)/C=C\C=C(/C)C(=O)NC(=CC1=O)C2=O [Tanespimycin] (first compound 0.4 µM, partner dose 0.002 µM) the figure was 89.4%; with `Cn1cnc2c(F)c(Nc3ccc(Br)cc3Cl)c(C(=O)NOCCO)cc21` [selumetinib] + COc1ccc2c(c1)CCC1C2CCC2(C)C(NCCCCCCN3C(=O)C=CC3=O)CCC12 [U73122] (first compound 0.015 µM, partner dose 0.4 µM), 165%.

These data come from the supplement of paper PMC4604168 (melanoma cell lines).
